# Reference: patent US20230125550A1 (ARCELLX, published 2023)
# Chains of the proteins cited; added tags and fusions are not shown. Lines headed by an entry give the natural chain unless they say otherwise; changes in a name come on top. Residues count along the entry.
# UniProt Q07011: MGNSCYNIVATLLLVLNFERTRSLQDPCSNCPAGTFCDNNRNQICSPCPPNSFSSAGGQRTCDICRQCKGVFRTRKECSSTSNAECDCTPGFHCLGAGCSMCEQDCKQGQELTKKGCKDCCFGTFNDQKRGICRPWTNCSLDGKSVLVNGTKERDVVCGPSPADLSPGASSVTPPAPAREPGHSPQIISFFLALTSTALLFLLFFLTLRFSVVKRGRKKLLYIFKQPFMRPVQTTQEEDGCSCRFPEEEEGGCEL
# CD137 as part of a cell membrane: residues 24-255 of Q07011
# CD137: residues 24-186 of Q07011
# Results are given in words; binding and its absence hold for the method and conditions named. Some binding calls cover weakened binding; strength is not graded here.
# B1: DDpp CD137-binder bb10 (designed binder)
# chain: MGSWAEFKQRLAAIKTRLEALGGSEAELAAFLGEIWAFEMELAAYKGKGNPEVEALGREAAAIRMELQAYRHN
# Legend:
# [1] = target: CD137 as part of a cell membrane (UniProt Q07011); experiment: FACS on cells
# [2] = target: CD137 (UniProt Q07011); experiment: ELISA, CD137 on plastic
binder,measurement,setting,value
B1,binding,[1],binds
same,binding,[2],binds
